# Laboratory results as given in publication PMC4466232.
# No constants are given. Whether binding was seen depends on the method and setting. In cells and extracts the contact can be indirect. Binding calls can cover weak binding; strength is not graded here.
# B1: MVM capsid protein VP1 (stably expressed in mouse fibroblasts, MF-VPs) (protein, UniProt P03137 1-729)
# chain: MAPPAKRAKRGWVPPGYKYLGPGNSLDQGEPTNPSDAAAKEHDEAYDQYIKSGKNPYLYFSAADQRFIDQTKDAKDWGGKVGHYFFRTKRAFAPKLATDSEPGTSGVSRAGKRTRPPAYIFINQARAKKKLTSSAAQQSSQTMSDGTSQPDSGNAVHSAARVERAADGPGGSGGGGSGGGGVGVSTGSYDNQTHYRFLGDGWVEITALATRLVHLNMPKSENYCRIRVHNTTDTSVKGNMAKDDAHEQIWTPWSLVDANAWGVWLQPSDWQYICNTMSQLNLVSLDQEIFNVVLKTVTEQDLGGQAIKIYNNDLTACMMVAVDSNNILPYTPAANSMETLGFYPWKPTIASPYRYYFCVDRDLSVTYENQEGTVEHNVMGTPKGMNSQFFTIENTQQITLLRTGDEFATGTYYFDTNSVKLTHTWQTNRQLGQPPLLSTFPEADTDAGTLTAQGSRHGTTQMGVNWVSEAIRTRPAQVGFCQPHNDFEASRAGPFAAPKVPADITQGVDKEANGSVRYSYGKQHGENWASHGPAPERYTWDETSFGSGRDTKDGFIQSAPLVVPPPLNGILTNANPIGTKNDIHFSNVFNSYGPLTAFSHPSPVYPQGQIWDKELDLEHKPRLHITAPFVCKNNAPGQMLVRLGPNLTDQYDPNGATLSRIVTYGTFFWKGKLTMRAKLRANTTWNPVYQVSAEDNGNSYMSVTKWLPTATGNMQSVPLITRPVARNTY
# Molecular target: MVM capsid protein VP2 (stably expressed in mouse fibroblasts, MF-VPs) (Minute Virus of Mice, prototype strain (MVMp))
# Assay: cross-linking; clarified cell homogenates in HNEM buffer (50 mM Hepes pH 8.0, 150 mM NaCl, 2 mM MgCl2, 1 mM EDTA) cross-linked with 10 mM dimethyl suberimidate (DMS), 10 min at 20°C; 5% SDS-PAGE and Western blot with the α-VPs antibody; MF-VPs quiescent by serum starvation (G0) or 8 h after serum addition (S); HF-VPs at hours after release of density arrest (G1)
binder,measurement,value
B1,binding,binds
